Structures are written as SMILES.

The results in this text go back to article PMC3897731, “Antimicrobial Properties and Membrane-Active Mechanism of a Potential α-Helical Antimicrobial Derived from Cathelicidin PMAP-36” (PLoS ONE, 2014).

A short description of data set [1]: Tryptophan fluorescence emission with lipid vesicles. It is filed as binding.
Assay in data set [2]: as above
It is filed as binding. This is another data set of the same source.

The mark [3] stands for this setting: 500 µM lipid, peptide/lipid 1:50, 10 mM Tris-HCl pH 7.4, excitation 280 nm.

In the case of `CC[C@H](C)[C@H](NC(=O)CN)C(=O)NCC(=O)N[C@@H](C)C(=O)N[C@H](C(=O)N[C@@H](CC(C)C)C(=O)N[C@@H](CCCCN)C(=O)N[C@H](C(=O)N[C@@H](CC(C)C)C(=O)N[C@H](C(=O)N[C@H](C(=O)NCC(=O)N[C@@H](CC(C)C)C(=O)N1CCC[C@H]1C(=O)N[C@@H](C)C(=O)N[C@@H](CC(C)C)C(=O)N[C@H](C(=O)N[C@@H](CO)C(=O)N[C@@H](Cc1c[nH]c2ccccc12)C(=O)N[C@H](C(=O)N[C@@H](CCCCN)C(=O)N[C@@H](CCCNC(=N)N)C(=O)N[C@@H](CCCCN)C(=O)N[C@@H](CCCNC(=N)N)C(=O)N[C@@H](CCC(N)=O)C(=O)N[C@@H](CCC(N)=O)C(N)=O)[C@@H](C)CC)[C@@H](C)CC)[C@@H](C)O)[C@@H](C)O)C(C)C)C(C)C` [melittin], the “Fluorescence emission maxima, PE/PG” value in data set [1] (setting [3]) amounted to 333 nm. Moreover, in data set [1] (peptide/lipid 1:50), the “Blue shift of emission maximum compared to Tris buffer, PE/PG” value came out at 18 nm. For the same compound, in data set [2] (setting [3]), the “Fluorescence emission maxima, PC/cholesterol” value is reported as 335 nm. Also, in data set [2] (peptide/lipid 1:50), the “Blue shift of emission maximum compared to Tris buffer, PC/cholesterol” value stood at 16 nm.
